AC50 data for 60 compounds are collected here from PubChem BioAssay AID445 (National Center for Advancing Translational Sciences (NCATS), 2006).

A short description of this test: IkB Signaling. The conditions noted are these: ABC-DLBCL IkBa-CBG/CBR dual luciferase ratio (green luciferase fused to IkBa over red control in OCI-Ly3 lymphoma cells), 4 h. The method, boiled down:
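In this assay, an IκBα–CBG68 fusion accumulates when IKK-driven degradation is blocked; native CBR normalizes for cell number. OCI-Ly3 cells were treated 4 h with compound and doxycycline, then green and red light read after Chroma-Glo addition.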

The mark [1] stands for this setting: measured here: control luc red channel unless noted.

This is one part of the list. Further columns of the screen follow, without active or inactive calls. Most of these compounds were active or inconclusive in the main read-out, so they are no random draw. Words in brackets tell the shape of the fitted curve; partial curves, single points and poor fits give uncertain potencies.

`CC(=O)N1CCc2c(sc3c2c(=O)n(-c2cccc(Cl)c2)c(=O)n3Cc2ccc(F)cc2Cl)C1`: the half-maximal activity concentration (AC50) under setting [1] is 39.8 µM [falling, single point].
On the same count and under the same terms, next, `Cc1nn(C)c2c1c(C(F)(F)F)cc(=O)n2CC(=O)N1CCN(c2ccccc2F)CC1`: 25.1 µM [falling, partial curve].
On the same count and under the same terms, the same measure for `O=C(Cn1c(=O)n(-c2ccccc2)c(=O)c2c3c(sc21)CCCC3)Nc1ccccc1`: 0.0251 µM [rising, full curve, poor fit]; for `CCOC(=O)c1c(NC(=O)/C=C/c2ccc(OCC)cc2)sc2c1CCCC2`: 3.98 µM [rising, partial curve].
As to `CCNc1sc(C(=O)c2cccs2)c(N)c1-c1nc2ccccc2s1`, the AC50 was 7.94 µM [rising, full curve] (measured here: IkB-luc green channel) and 6.31 µM [falling, partial curve] (measured here: control luc red channel).
Regarding `O=C(Oc1cccc2c(O)cccc12)c1ccccc1`, the half-maximal activity concentration (AC50) under setting [1] is 20 nM [falling, full curve] [measured here: IkB-luc green channel].
Take `O=C(CCC1N=C2c3ccccc3N=C(SCc3ccccc3Cl)N2C1=O)N1CCN(c2ccccc2)CC1` (stereo unspecified): under setting [1], the AC50 was 0.158 µM [rising, full curve].
`O=C1c2cccc3cccc(c23)N1CN1CCN(c2ccccn2)CC1`: the AC50 under setting [1] is 31.6 µM [falling, partial curve].
As to `Cc1ccc(C)c(NC(=O)CSc2ncc3c(n2)-c2cc(Cl)ccc2N(Cc2ccccc2F)S3(=O)=O)c1`, the AC50 under setting [1] was 1.26 µM [falling, full curve].
For the compound `CC1(C)CC(=O)c2cc(-c3nc(-c4ccc(Cl)cc4)cs3)c(=O)n(-c3ccc(F)cc3)c2C1`, under setting [1], the AC50 is 39.8 µM [falling, single point].
Turning to `COc1ccc(CN(Cc2ccco2)c2cnc(S(C)(=O)=O)nc2C(=O)Nc2ccc(C)c(C)c2)cc1`, the AC50 under setting [1] is 25.1 µM [falling, single point].
On to `Cc1cc(OCC(=O)Nc2cc(-c3nn4c(C)nnc4s3)ccc2C)ccc1Cl`, for which the AC50 under setting [1] was 7.94 µM [rising, single point] [measured here: IkB-luc green channel].
With `COCc1[nH]nc2c1C(C1C=CCCC1)C(C#N)=C(N)O2` (stereo unspecified), the AC50 under setting [1] is 10 µM [falling, partial curve].
Still for that read-out and setting: next, `COc1ccc(-c2cc(C(F)(F)F)nc(NCCc3ccccc3)n2)cc1`: 20 µM [falling, single point]; `Cc1ccc(NC(=O)CSc2nc3ccc(NC(=O)c4ccco4)cc3s2)c(C)c1`: 25.1 µM [falling, partial curve].
As for `CC(C)(C)c1ccc(OCC(=O)NC(Cc2c[nH]c3ccccc23)C(=O)O)cc1` (stereo unspecified), the AC50 under setting [1] was 20 µM [falling, single point].
In the case of `CC(=O)Nc1ccc(NS(=O)(=O)c2cc3c4c(c2)CC(=O)N4CCC3)cc1`, under setting [1], the AC50 is 12.6 µM [rising, partial curve].
Take `O=C(c1ccco1)N1CCN(C(=O)c2cc(-c3ccccn3)nc3ccccc23)CC1`: under setting [1], the AC50 was 12.6 µM [falling, partial curve, poor fit].
With `COc1cc(C(=O)NCCS(=O)(=O)N2CCN(c3ccccc3)CC2)cc(OC)c1OC`, the AC50 under setting [1] was 3.16 µM [falling, full curve].
As for `COc1ccc(-c2cc3nc(C)c(CCC(=O)N4CCN(c5cc(C)ccc5C)CC4)c(C)n3n2)c(OC)c1`, the concentration at half-maximal activity (AC50) under setting [1] was 1 µM [falling, full curve].
As for `COc1ccc(N2CCN(S(=O)(=O)CCNC(=O)c3ccc(OC(C)C)cc3)CC2)cc1`, the AC50 under setting [1] was 1.58 µM [falling, partial curve].
The same measure, in the same setting: next, `CN(C(=O)CSc1nc2ccc(NC(=O)COc3ccccc3Cl)cc2s1)c1ccccc1`: 15.8 µM [falling, partial curve]; `COc1cccc2sc(Nc3nc(C)c(C(C)=O)s3)nc12`: 3.98 µM [rising, partial curve] [measured here: IkB-luc green channel].
As to `COc1ccccc1N1CCN(C(=O)C2CCCN(S(=O)(=O)c3ccc4c(c3)oc(=O)n4C)C2)CC1` (stereo unspecified), the AC50 under setting [1] is 10 µM [falling, partial curve].
As to `CCOC(=O)c1cccc(NC(=O)c2ccc3snnc3c2)c1`, the AC50 under setting [1] was 39.8 µM [falling, single point].
In the case of `CCc1ccc(-n2c(N3CCN(c4cccc(C)c4C)CC3)nc3ccccc3c2=O)cc1`, the concentration at half-maximal activity (AC50) under setting [1] is 15.8 µM [falling, single point].
`Cc1ccc(Nc2nc(N)nc(N)c2S(=O)(=O)c2ccccc2)cc1`: the AC50 under setting [1] is 20 µM [falling, single point].
Take `COC(=O)c1sccc1S(=O)(=O)N(CC(=O)NCc1ccccc1)c1ccc(C)cc1`: the AC50 under setting [1] is 20 µM [falling, single point].
With `COc1ccccc1C(=O)Nc1nc(-c2ccc(Br)cc2)ns1`, the AC50 under setting [1] was 1 µM [falling, partial curve].
Same read-out and setting: next, `Fc1cccc(-c2cc3nc4c(c(N5CCN(c6cnccn6)CC5)n3n2)CCCC4)c1`: 5.01 µM [falling, partial curve]; `Cc1cc(C(=O)COc2cccc(-n3cnnn3)c2)c(C)n1-c1ccccc1`: 12.6 µM [falling, partial curve].
Regarding `CCOC(=O)CN1C(C(=O)c2ccccc2)=C(OC(=O)c2ccccc2)c2ccccc2S1(=O)=O`, under setting [1], the AC50 was 15.8 µM [falling, partial curve].
The same measure, in the same setting: the same measure for `Cc1ccc(NC(=O)C2CCCN(S(=O)(=O)c3ccc(F)cc3)C2)cc1` (stereo unspecified): 15.8 µM [falling, partial curve].
As to `CC(C(=O)NCc1ccc2c(c1)OCO2)N1c2cccc3cccc(c23)S1(=O)=O` (stereo unspecified), under setting [1], the concentration at half-maximal activity (AC50) is 12.6 µM [falling, partial curve].
Regarding `CC1=C(c2ccc(C)c(C)c2)S(=O)(=O)N=C1N1CCC(C(=O)NCc2ccc(Cl)cc2)CC1`, the AC50 under setting [1] is 20 µM [falling, partial curve].
Still for that read-out and setting: the same measure for `O=C(NCCC1=CCCCC1)c1ccc2c(c1)N(Cc1ccc(Cl)cc1)C(=O)c1ccccc1S2=O` (stereo unspecified): 10 µM [falling, partial curve].
Still for that read-out and setting: the same measure for `O=C(OCc1nc2ccccc2s1)C1CCN(C2=NS(=O)(=O)c3ccccc32)CC1`: 3.98 µM [falling, partial curve].
Turning to `CCOC(=O)c1cccc(NC(=O)c2cnc(N3CCCCC3)c3ccccc23)c1`, the half-maximal activity concentration (AC50) under setting [1] is 25.1 µM [falling, partial curve].
The same measure, in the same setting: next, `Cc1ccc(CNC(=O)CN2CCCN(Cc3ccc(F)cc3)S2(=O)=O)cc1`: 0.316 µM [falling, partial curve]; `COc1ccc(-c2noc(CCC(=O)N3CCN(c4cccc(C(F)(F)F)c4)CC3)n2)cc1`: 3.98 µM [falling, full curve, poor fit]; `O=C(COc1ccccc1F)Nc1ccc(Cl)c(-c2nc3ccccc3[nH]2)c1`: 15.8 µM [falling, partial curve].
Turning to `CCn1c(SC)nnc1-c1sc2cc(Cl)ccc2c1Cl`, the AC50 under setting [1] is 15.8 µM [falling, partial curve].
`Clc1cccc2sc(N3CCN(c4ccccc4)CC3)nc12`: the AC50 under setting [1] is 31.6 nM [rising, single point] [measured here: IkB-luc green channel].
With `CCc1cccc(NC(=O)CC2Oc3ccc(C)cc3NC2=O)c1` (stereo unspecified), the AC50 under setting [1] was 7.94 µM [rising, partial curve].
For the compound `O=C(NCCS(=O)(=O)N1CCN(c2cccc(Cl)c2)CC1)c1cc(=O)c2ccccc2o1`, the concentration at half-maximal activity (AC50) under setting [1] was 3.16 µM [falling, partial curve, poor fit].
On to `COc1ccccc1N(C(C)=O)C1SC(=O)N(c2ccccc2)C1=O` (stereo unspecified), for which, under setting [1], the AC50 was 3.16 µM [falling, full curve].
For `COc1cc(-c2nnn(CC(=O)NCc3ccccc3)n2)cc(OC)c1OC`, the AC50 under setting [1] was 39.8 µM [falling, single point].
For `CCn1c(=S)sc2c(=O)n(-c3ccccc3)c(SCC(=O)NCc3ccco3)nc21`, under setting [1], the AC50 was 7.94 µM [falling, partial curve].
Still for that read-out and setting: next, `Cc1cccc(N2CCN(c3ncnc4c3c(-c3ccccc3)cn4-c3ccccc3)CC2C)c1` (stereo unspecified): 25.1 µM [falling, single point]; `CC(=O)N1c2c(cc(Br)cc2S(=O)(=O)NCC2COc3ccccc3O2)CC1C` (stereo unspecified): 15.8 µM [falling, partial curve].
Regarding `Cc1cccc(-c2nc(CS(=O)CC(=O)NCCCSC3CCCCC3)c(C)o2)c1` (stereo unspecified), the AC50 under setting [1] is 15.8 µM [falling, partial curve].
Take `COc1cc(NC(=O)c2cc(-c3cccc(Cl)c3)on2)c(OC)cc1Cl`: the half-maximal activity concentration (AC50) under setting [1] was 20 µM [falling, single point].
In the case of `Cc1ccc(N(CC(=O)N2CCN(c3cc(Cl)ccc3C)CC2)S(=O)(=O)c2c(C)noc2C)cc1`, under setting [1], the AC50 was 3.98 µM [falling, full curve].
Regarding `COc1ccc(NC(=O)c2sc3nc(C)c(C(=O)Nc4ccc(C)cc4C)c(-c4cccs4)c3c2N)cc1`, the AC50 under setting [1] was 3.98 µM [falling, full curve].
Take `COc1ccc(OC)c(NC(=O)c2sc3nc4c(cc3c2N)CCCCCC4)c1`: under setting [1], the AC50 is 25.1 µM [falling, partial curve].
In the case of `Cc1ccc(C)c(N2CCN(C(c3ccc(F)cc3)c3nnc(-c4ccccc4)o3)CC2)c1` (stereo unspecified), under setting [1], the AC50 is 1.26 µM [falling, full curve].
Turning to `CN(C)CCNS(=O)(=O)c1ccc(Cl)cc1`, the AC50 under setting [1] is 15.8 µM [falling, partial curve].
For the compound `Cc1ccccc1CSc1cn(CC(=O)N2CCCC2)c2ccccc12`, the AC50 under setting [1] is 12.6 µM [falling, partial curve].
Regarding `CC(=O)c1ccc(N2CCN(C(=O)Cn3ncc4c3-c3ccccc3OC4)CC2)cc1`, the AC50 under setting [1] was 15.8 µM [falling, partial curve].
Regarding `COc1ccccc1/C=C/c1nc(C#N)c(NC(C)c2ccccc2)o1` (stereo unspecified), the concentration at half-maximal activity (AC50) under setting [1] was 31.6 µM [falling, single point].
